Laboratory results published in patent publication US20110311551A1 (INSERM, published 2011).
These are yes or no findings as the source states them, for the method shown. For some of these results: A result given as binding can be weak or reduced; the word gives no strength.

Tests used:
[1] = target: µ-chains of immunoglobulins (Ig); assay: EIA
[2] = target: γ-chains of immunoglobulins (Ig); assay: EIA
[3] = target: E1E2 non covalently-linked mature complex (recombinant, co-expressed in HepG2 cells) (Hepatitis C virus); assay: immunoprecipitation, SDS-PAGE under non-reducing conditions
[4] = target: E1E2 non covalently-linked mature complex (recombinant, co-expressed in HepG2 cells) (Hepatitis C virus); assay: immunoprecipitation, vaccinia virus recombinants in HepG2 cells

B1: monoclonal antibody D32.10 (antibody, V domains shown)
VH: EVQLQQSGAELVKPGASVKLSCTPSGFNIKDTYIHWVKQRPEQGLEWIGMINPANGNSNYDPKFQDKATITADTSSNTAYLQLSSLTSEDTAVYYCAEITTDFDVWGAGTTVTVSS
VL: NIVLTQSPPSLAVSLGQRATISCRASESVDSYGNSFLHWYQQKSGQPPKLLIYLASNLESGVPARFSGSGSRTDFTLTIDPLEADDAATYYCQQNNEAPFTFGSGTKLEIKR
notes: also called mAb D32.10; MAb D32.10
binding [1]: no binding
binding [2]: no binding
binding [3]: binds
binding [4]: binds
